Measured values reported in paper PMC8667918, “Synthesis and biological evaluation of halogenated phenoxychalcones and their corresponding pyrazolines as cytotoxic agents in human breast cancer” (Journal of Enzyme Inhibition and Medicinal Chemistry, 2021).

Experiments:
[1] = system: MCF-7 breast cancer cell line; assay: MTT assay, cytotoxicity against breast cancer cell line MCF-7
Description: (§1) Human breast cancer cell line MCF-7 and normal breast cell line MCF-10a were obtained from American type culture collection, MCF-7 cells were cultured using Dulbecco’s Modified Eagle Medium DMEM (Invitrogen/Life Technologies) supplemented with 10% FBS (Hyclone), 10 µg/ml of insulin (Sigma), and 1% penicillin-streptomycin. MCF-10a cell line was cultured using DMEM medium supplemented with 10% FBS, 1% sodium pyruvate, 1% MEM NEAA, 20 ng/ml human epidermal growth factor (HEGF), 10 μg/ml insulin and 0.05 mM hydrocortisone. The cells were incubated at 37 °C in a humidified atmosphere of 5% CO2.
(§2) The anticancer effect of phenoxychalcones and N-acetylpyrazolines on the viability of both tumour and normal cells was evaluated using МТТ assay as a rapid colorimetric assay. It is based on the ability of mitochondrial dehydrogenases of viable cells to reduce yellow tetrazolium salt MTT to blue formazan in quantities proportional to the number of living cells. […] The viability of cells was estimated by measuring the absorbance at 570 nm using a Bioline ELIZA plate reader. The cell viability percentage was calculated based on the absorbance ratio between cell culture treated with the compounds and the untreated control multiplied by 100. Selectivity index (SI) was calculated as the ratio of cytotoxicity (IC50) on normal cells (MCF-10a) to cancer cells (MCF-7).

in vitro = details: human
Description: as §1, §2

With CN[C@@H]1C[C@H]2O[C@@](C)([C@@H]1OC)n1c3ccccc3c3c4c(c5c6ccccc6n2c5c31)C(=O)NC4 [Staurosporine, reference compound] the IC50 ([1]; Homo sapiens, MCF7, 48 h, read-out: In vitro cytotoxicity IC50 MCF-7) was 5.9 ± 0.14 µM, the Selectivity index ([1]; ratio of IC50 on normal cells (MCF-10a) to cancer cells (MCF-7)) was 2.60 and the IC50 (in vitro) was 15.3 ± 0.51 µM.
